# Hit rate of the full screen: of about 320,000 compounds, about 620 (0.19%) were called active. This list was built around the results that the source calls inconclusive (neither active nor inactive); the mix of calls is not that of the screen. Rule as the data show it: active = activation above about 80%; inconclusive = between about 30% and that limit; inactive = weaker than that.
# Sequences of proteins named here, by UniProt entry; tags and fusion partners are left off.
# UniProt Q8NER1, whole entry, looked up: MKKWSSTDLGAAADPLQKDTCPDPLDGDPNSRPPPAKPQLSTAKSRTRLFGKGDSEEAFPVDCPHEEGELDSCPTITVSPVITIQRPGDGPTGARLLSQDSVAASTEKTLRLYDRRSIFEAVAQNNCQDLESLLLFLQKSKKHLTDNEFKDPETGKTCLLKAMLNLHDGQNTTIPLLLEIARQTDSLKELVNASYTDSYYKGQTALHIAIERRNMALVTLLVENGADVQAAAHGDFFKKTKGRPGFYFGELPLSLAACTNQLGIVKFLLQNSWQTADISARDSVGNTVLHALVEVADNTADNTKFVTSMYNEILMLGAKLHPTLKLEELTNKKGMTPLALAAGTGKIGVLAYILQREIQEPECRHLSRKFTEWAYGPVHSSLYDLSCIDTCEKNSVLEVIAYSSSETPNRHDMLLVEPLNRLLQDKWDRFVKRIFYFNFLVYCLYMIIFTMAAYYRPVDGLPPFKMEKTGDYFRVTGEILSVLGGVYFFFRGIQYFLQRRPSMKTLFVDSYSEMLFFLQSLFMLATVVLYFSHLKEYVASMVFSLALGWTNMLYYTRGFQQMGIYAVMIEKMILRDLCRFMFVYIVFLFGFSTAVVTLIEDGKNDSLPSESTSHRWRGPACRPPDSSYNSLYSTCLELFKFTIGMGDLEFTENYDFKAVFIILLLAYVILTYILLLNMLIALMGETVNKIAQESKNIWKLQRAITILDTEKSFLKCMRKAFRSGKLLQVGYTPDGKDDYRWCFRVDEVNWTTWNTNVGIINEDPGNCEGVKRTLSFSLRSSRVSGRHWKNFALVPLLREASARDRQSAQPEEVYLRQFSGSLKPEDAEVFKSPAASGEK
# Molecular target: Transient receptor potential cation channel subfamily V member 1 (Homo sapiens) (UniProt Q8NER1)
# Assay: HTS Assay for Compounds that Act as Agonists of the Vanilloid Receptor 1; also: 0% is about no effect
# Conditions: TRPV1-expressing cells, Fluo-8 calcium influx, agonist mode; at 8.33 µM, stronger effect = higher value
# How it was run: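 Cells expressing TRPV1 were dye-loaded with Fluo-8 and read kinetically: 10 s baseline, 3 min after compound (agonist portion), then 2 min after EC20 capsaicin (allosteric enhancer portion). Calcium-bound dye fluorescence at 480/520 nm.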
row,Compound,activation
1,Cc1cc(N/C=C/C(=O)c2cccs2)ccc1F,inconclusive: 46%
2,CCCCCCNc1cc2n(c(=O)n1)CCc1cc(OC)c(OC)cc1-2,inactive: 1.04%
3,CC(=O)Nc1ccc(O)c(-c2nc3ccccc3s2)c1,inconclusive: 42.1%
4,Cc1cc(C(=O)N/N=C2\CC(=O)CC(C)(C)C2)c(C)n1-c1ccccc1,inconclusive: 36.1%
5,CCOC(=O)c1cc(-c2cccs2)nc2c1c(C)nn2-c1ccccn1,inconclusive: 48.9%
6,CCOC(=O)C1CCN(C(=S)Nc2ccc(Cl)cc2C)CC1,inactive: 1.8%
7,COCCN(Cc1ccccc1)C(=O)c1cc(-c2ccc(OC)c(OC)c2)nc2ccccc12,inconclusive: 38.5%
8,O=C(CCC(=O)N1CCN(c2ccc(Cl)c(Cl)c2)CC1)c1ccccc1,inconclusive: 34.1%
9,Cc1c(C(=O)NC2CCCCC2)oc2ccc(F)cc12,inconclusive: 73%
10,CCn1c2ccccc2c2cc(NC(=O)COC(=O)c3cc(OC)c(OC)cc3OC)ccc21,inactive: -1.43%
11,Fc1ccc(Nc2nc(-c3ccncc3)cs2)cc1,inactive: -0.441%
12,CSc1ccc(/C=N/NC(=O)c2ccccc2Cl)cc1,inconclusive: 55.5%
13,O=C(NCc1ccc2c(c1)OCO2)c1nc(Cn2cc(Br)cn2)no1,inconclusive: 38.6%
14,Cc1ccc(CN(CC(=O)NC2CCCCC2)C(=O)c2csnn2)cc1,inconclusive: 35.2%
15,Cc1nc2nc(-c3ccco3)[nH]n2c(=O)c1Cc1ccccc1,inactive: -4.7%
16,CCOC(=O)C(=CNc1cc(OC)ccc1-n1cccc1)C(=O)OCC,inconclusive: 43.7%
17,Cc1ccccc1NCC(=O)N/N=C/c1c(C)c(C(=O)c2ccc(Cl)cc2)n2ccccc12,inactive: 0.0596%
18,CCCCCCCCC(=O)N/N=C/c1cccc(Br)c1,inconclusive: 32.8%
19,Cc1cc(Br)cc2c(C(=O)NCC3CCCO3)cc(-c3ccccc3)nc12 (configuration not stated),inconclusive: 47.3%

row,Compound,activation
1,N#Cc1c(N2CCN(C(=O)c3ccccc3Cl)CC2)nc(-c2ccccc2)c2c1CCCC2,inactive: 4.95%
2,O=C(COC(=O)C1CCN(S(=O)(=O)c2cccs2)CC1)NCc1ccc(F)cc1,inconclusive: 31.5%
3,CCOC(=O)NN1C(=O)c2ccccc2NC1c1ccc(N(C)C)cc1 (configuration not stated),inactive: 14.1%
4,COc1ccc(N(CC(=O)N2CCN(Cc3ccc4c(c3)OCO4)CC2)S(=O)(=O)c2ccc(F)cc2)cc1,inactive: -0.345%
5,Cc1cc(/C=N/NC(N)=S)c(C)n1-c1ccc(Br)cc1,inactive: 3.79%
6,Cc1ccc(/C=C/C(=O)c2ccc(C)cc2)cc1,inconclusive: 64.7%
7,CN(C)c1ccc(/C=C2/SC(=O)N(CCN=C3NS(=O)(=O)c4ccccc43)C2=O)cc1,inactive: 9.33%
8,O=[N+]([O-])c1ccc2nc(Cl)nc(-c3ccccc3)c2c1,inactive: 2.06%
9,C[C@@H](C(=O)N1CCN(C(=O)OC(C)(C)C)CC1)n1cc(CCCN=C(NC(=O)OC(C)(C)C)NC(=O)OC(C)(C)C)nn1,inactive: 1.24%
10,Cc1cc(C(=O)NCCC(c2ccccc2)c2ccccc2)c(C)o1,inconclusive: 57.7%
11,O=C(O)CCC(=O)NNC(=O)CCC1CCCCC1,inactive: 0.665%
12,COc1ccc(NC(=O)Nc2cccc([N+](=O)[O-])c2)cc1Cl,inconclusive: 45.3%
13,CC(C)OP(=O)(OC(C)C)C(Nc1ccccc1)c1ccccc1C(F)(F)F (configuration not stated),inconclusive: 43.7%
14,CCCOc1ccc(CNC(=O)Cc2cccs2)cc1,inconclusive: 56.4%
15,CC(Oc1ccc(-c2ccccc2)cc1)C(=O)N1CCOCC1 (configuration not stated),inconclusive: 61.7%
16,Cc1ccc(OCCCC(=O)Nc2ccc3c(c2)OCO3)cc1,inconclusive: 39.7%
17,O=C(Nc1nc2cc3c(cc2s1)OCO3)C1CC1,inactive: 6.47%
18,O=C(Nc1nc(-c2ccccc2)ns1)c1cccs1,inconclusive: 59.7%
19,COC(=O)c1ccccc1-c1ccc(/C=N/Nc2nc(N3CCCC3)nc(N3CCCC3)n2)o1,inactive: 4.45%

# An excerpt from above in order of SMILES length, smallest number first.
row,Compound,activation
11,O=C(O)CCC(=O)NNC(=O)CCC1CCCCC1,inactive: 0.665%
17,O=C(Nc1nc2cc3c(cc2s1)OCO3)C1CC1,inactive: 6.47%
6,Cc1ccc(/C=C/C(=O)c2ccc(C)cc2)cc1,inconclusive: 64.7%
16,Cc1ccc(OCCCC(=O)Nc2ccc3c(c2)OCO3)cc1,inconclusive: 39.7%
15,CC(Oc1ccc(-c2ccccc2)cc1)C(=O)N1CCOCC1 (configuration not stated),inconclusive: 61.7%
5,Cc1cc(/C=N/NC(N)=S)c(C)n1-c1ccc(Br)cc1,inactive: 3.79%
8,O=[N+]([O-])c1ccc2nc(Cl)nc(-c3ccccc3)c2c1,inactive: 2.06%
12,COc1ccc(NC(=O)Nc2cccc([N+](=O)[O-])c2)cc1Cl,inconclusive: 45.3%
2,O=C(COC(=O)C1CCN(S(=O)(=O)c2cccs2)CC1)NCc1ccc(F)cc1,inconclusive: 31.5%
1,N#Cc1c(N2CCN(C(=O)c3ccccc3Cl)CC2)nc(-c2ccccc2)c2c1CCCC2,inactive: 4.95%
19,COC(=O)c1ccccc1-c1ccc(/C=N/Nc2nc(N3CCCC3)nc(N3CCCC3)n2)o1,inactive: 4.45%
7,CN(C)c1ccc(/C=C2/SC(=O)N(CCN=C3NS(=O)(=O)c4ccccc43)C2=O)cc1,inactive: 9.33%
4,COc1ccc(N(CC(=O)N2CCN(Cc3ccc4c(c3)OCO4)CC2)S(=O)(=O)c2ccc(F)cc2)cc1,inactive: -0.345%

# Further structures

row,Compound,activation
1,CCOC(=O)c1c(NC(=O)CSc2nnc(N)s2)sc(C)c1-c1ccc(C)cc1,inconclusive: 33.3%
2,COC(=O)c1ccc(-n2c(C)cc(C(=O)CSc3cccc[n+]3[O-])c2C)cc1,inactive: 0.651%
3,Cn1cccc1/C=N/N1CCN(c2ccccc2)CC1,inconclusive: 33.5%
4,CCC(C)(C)c1ccc(OCCN2C(=O)NC(C)(C)C2=O)cc1,inconclusive: 69.9%
5,Clc1ccc(-c2onc3c2CCCC3)cc1,inconclusive: 52%
6,O=C(Nc1ccc2c(c1)CCC2)c1ccc(Cl)nc1,inconclusive: 68.8%
7,CC(Nc1cc(N2CCN(C(=O)C(C)(C)C)CC2)ccc1[N+](=O)[O-])c1ccccc1 (configuration not stated),inconclusive: 68.1%
8,Cn1c(CCN2CCCCC2)nc2cc(NC(=O)COc3ccccc3)ccc21,inactive: 0.729%
9,Cc1ccccc1OCCCCn1c(CO)nc2ccccc21,inconclusive: 44.4%
10,CCn1c(C(=O)N2CCc3ccccc3C2)cc2sccc21,inconclusive: 34.7%
11,CC1=NN(c2ccccc2C(=O)O)C(=O)C1N=Nc1ccccc1 (configuration not stated),inactive: 0.28%
12,COc1ccc(C(=O)/C=C2/Sc3cc4c(cc3N2C)OCO4)cc1,inactive: 2.71%
13,CC(C)(C)c1nnc2sc(SC/C(O)=C(\C#N)c3nc4ccccc4[nH]3)nn2c1=O,inactive: 3.63%
14,O=C(c1cc(COc2ccc(F)cc2Cl)on1)N1CC[C@@H]2CCCC[C@H]2C1,inconclusive: 62.8%
15,Cc1cccc(C)c1NC(=S)/C(=C(\[O-])c1cccs1)[n+]1ccccc1,inactive: -5.54%
16,Cc1ccc(-n2nnnc2-c2cnn(-c3ccc(F)cc3)c2C(F)(F)F)cc1,inconclusive: 53.1%
17,C[C@@H](NC(=O)[C@@H]1Cc2ccccc2CN1C(=O)OC(C)(C)C)C(=O)NC1CCCC1,inactive: -2.95%
18,CC(NC(=S)Nc1ccc(OC(F)F)cc1OC(F)F)C(C)(C)C (configuration not stated),inconclusive: 40.8%
19,CCC(C)c1ccccc1NC(=O)CN(C)CCOc1ccc(Cl)cc1 (configuration not stated),inconclusive: 38.6%
